PubChem BioAssay AID1508597, Cure First – 2020

- Purpose: 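Genes whose silencing sensitises or protects ovarian cancer cells against rucaparib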 (primary screen)
- System: human ovarian carcinoma lines grown from tumours: OCI-P5x (papillary serous) and OCI-C5x (clear cell)
- Reagent: siRNA pool against human genes, 1.25 pmol siRNA per well
- Time to read-out: 72 h or 96 h, depending on the cell culture
- Treatment: rucaparib 20 µM (about IC30) or vehicle, present until read-out
- Rucaparib or vehicle: Rucaparib
- Cell line: OCI-C5x (clear cell)
- Read-out: 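Luminescent ATP-based viability assay read 72 or 96 h after transfection, depending on culture, given as normalised percent viability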
- Reading the numbers: viability, normalised: higher = more viable cells remaining
- Active means: 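Active when normalised viability falls below 80 percent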
- Calls: active = viability under 80%; inactive = viability 80% or more
Shown is an unselected part of the about 2,100 reagents, in one setting of the screen. 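Calls flag viability under 80% in either arm, not effects specific to rucaparib; the reference for percent is not stated.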 The record does not give: the 100% reference.

IL11 [SID405526893], technical replicate 1 → viability, normalised (%) = 31; Call = active
IL11 [SID405526893], technical replicate 2 → viability, normalised (%) = 14.5; Call = active
IL11 [SID405526893], technical replicate 3 → viability, normalised (%) = 25.8; Call = active
HERC3 [SID405526854], technical replicate 1 → viability, normalised (%) = 53.3; Call = active
HERC3 [SID405526854], technical replicate 2 → viability, normalised (%) = 34.7; Call = active
HERC3 [SID405526854], technical replicate 3 → viability, normalised (%) = 50.4; Call = active
ACTL6A [SID405527946], technical replicate 1 → viability, normalised (%) = 45; Call = active
ACTL6A [SID405527946], technical replicate 2 → viability, normalised (%) = 49.1; Call = active
ACTL6A [SID405527946], technical replicate 3 → viability, normalised (%) = 53.4; Call = active
SETD1B [SID405527280], technical replicate 1 → viability, normalised (%) = 50.2; Call = active
SETD1B [SID405527280], technical replicate 2 → viability, normalised (%) = 45.1; Call = active
SETD1B [SID405527280], technical replicate 3 → viability, normalised (%) = 33.2; Call = active

Sorted by “viability, normalised (%)” (ascending): some entries from above.
SETD1B [SID405527280], technical replicate 1 → viability, normalised (%) = 50.2; Call = active
ACTL6A [SID405527946], technical replicate 3 → viability, normalised (%) = 53.4; Call = active
